This is an account of results in paper PMC6118199.

These are yes or no findings as the source states them, for the method shown.

This assay concerns the target PaTonB-96 (C-terminal 96 residues of TonB protein from Pseudomonas aeruginosa) (Pseudomonas aeruginosa) (UniProt Q51368). The experiment in a line: NMR 15N relaxation (rotational correlation time from T1/T2); one mM PaTonB-96 in 20 mM sodium phosphate buffer pH 6.0, 10% D2O, 25 °C, 850 MHz; tau_c 6.9 ns from T1/T2 (model-free), 7.2 ns from MD simulation scaled to the relaxation data, compared with literature values of monomeric proteins of similar weight; both purified.

B1: PaTonB-96 (C-terminal 96 residues of TonB protein from Pseudomonas aeruginosa) (domain or fragment, UniProt Q51368 247-342)
chain: SHMGSLNDSDIKPLRMDPPVYPRMAQARGIEGRVKVLFTITSDGRIDDIQVLESVPSRMFDREVRQAMAKWRFEPRVSGGKIVARQATKMFFFKIEKRR
Turning to B1, the binding result is recorded as “no binding (tested: one mM)”.
